Drawing on PMC5297127, this text covers binding for 3 molecules.

The chains behind the UniProt entries cited, without tags or fusion partners.
UniProt Q92905: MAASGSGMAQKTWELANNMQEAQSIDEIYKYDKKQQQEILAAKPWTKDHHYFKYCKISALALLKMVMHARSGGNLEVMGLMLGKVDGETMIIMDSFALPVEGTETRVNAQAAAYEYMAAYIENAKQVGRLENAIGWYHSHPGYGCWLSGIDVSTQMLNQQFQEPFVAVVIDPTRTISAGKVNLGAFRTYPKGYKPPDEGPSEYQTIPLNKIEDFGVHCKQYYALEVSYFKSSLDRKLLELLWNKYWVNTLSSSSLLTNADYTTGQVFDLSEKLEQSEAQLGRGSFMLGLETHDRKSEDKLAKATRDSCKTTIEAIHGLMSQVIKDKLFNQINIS
UniProt P25963: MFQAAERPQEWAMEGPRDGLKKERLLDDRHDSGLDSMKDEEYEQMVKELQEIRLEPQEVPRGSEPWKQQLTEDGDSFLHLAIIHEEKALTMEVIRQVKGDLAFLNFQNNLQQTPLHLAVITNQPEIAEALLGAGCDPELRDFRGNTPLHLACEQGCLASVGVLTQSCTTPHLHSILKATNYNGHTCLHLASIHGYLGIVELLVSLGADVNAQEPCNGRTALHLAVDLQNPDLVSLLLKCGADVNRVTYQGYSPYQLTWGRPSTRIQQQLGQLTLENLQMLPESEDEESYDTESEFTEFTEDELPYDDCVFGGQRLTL
UniProt Q04206: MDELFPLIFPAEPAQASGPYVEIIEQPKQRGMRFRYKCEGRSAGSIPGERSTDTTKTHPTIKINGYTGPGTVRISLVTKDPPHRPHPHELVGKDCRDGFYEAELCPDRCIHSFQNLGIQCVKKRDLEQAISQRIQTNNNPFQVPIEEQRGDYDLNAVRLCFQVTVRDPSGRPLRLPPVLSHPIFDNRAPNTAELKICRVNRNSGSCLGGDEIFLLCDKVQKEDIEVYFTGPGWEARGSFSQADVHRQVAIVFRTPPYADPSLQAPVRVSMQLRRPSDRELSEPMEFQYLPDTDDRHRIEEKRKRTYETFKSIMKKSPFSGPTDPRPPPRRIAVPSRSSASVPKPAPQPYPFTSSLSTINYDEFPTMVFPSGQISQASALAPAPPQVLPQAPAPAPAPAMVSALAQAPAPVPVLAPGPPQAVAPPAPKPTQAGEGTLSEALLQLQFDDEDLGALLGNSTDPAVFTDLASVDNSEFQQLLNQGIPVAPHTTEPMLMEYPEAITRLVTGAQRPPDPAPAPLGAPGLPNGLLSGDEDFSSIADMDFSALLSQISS

The target of assay [1] is JAB1 (Jun activation domain binding protein-1) (human (endogenous in U937)) (UniProt Q92905). The assay is described as follows: co-IP; Pierce Co-IP kit; endogenous JAB1 precipitated with anti-JAB1 [2A10.8] antibody-coupled resin from 1 mg pre-cleared lysate of PMA-differentiated U937 macrophages, untreated or oxLDL-treated (4 h); western blot; eluate of Control Agarose Resin as negative control. In general terms: Immunoblotting shows a protein as a band on a membrane.

Assay [2] deals with JAB1 (Jun activation domain binding protein-1) (human (endogenous in U937)), Q92905. Described as above. Particulars: remark: other sources report otherwise.

These are yes or no findings as the source states them, for the method shown. In cells and extracts the contact can be indirect.

As for “Iκ-Bα (nuclear factor of kappa light polypeptide gene enhancer in B-cells inhibitor, alpha) (from UniProt P25963 1-317)”, the binding entry in assay [1] was “no binding”. Same read-out and setting: to NF-κB p65 (from UniProt Q04206 1-551) belongs “no binding”.

B1: IkB kinase ß (IKKß), O14920 1-756 (protein)
chain: MSWSPSLTTQTCGAWEMKERLGTGGFGNVIRWHNQETGEQIAIKQCRQELSPRNRERWCLEIQIMRRLTHPNVVAARDVPEGMQNLAPNDLPLLAMEYCQGGDLRKYLNQFENCCGLREGAILTLLSDIASALRYLHENRIIHRDLKPENIVLQQGEQRLIHKIIDLGYAKELDQGSLCTSFVGTLQYLAPELLEQQKYTVTVDYWSFGTLAFECITGFRPFLPNWQPVQWHSKVRQKSEVDIVVSEDLNGTVKFSSSLPYPNNLNSVLAERLEKWLQLMLMWHPRQRGTDPTYGPNGCFKALDDILNLKLVHILNMVTGTIHTYPVTEDESLQSLKARIQQDTGIPEEDQELLQEAGLALIPDKPATQCISDGKLNEGHTLDMDLVFLFDNSKITYETQISPRPQPESVSCILQEPKRNLAFFQLRKVWGQVWHSIQTLKEDCNRLQQGQRAAMMNLLRNNSCLSKMKNSMASMSQQLKAKLDFFKTSIQIDLEKYSEQTEFGITSDKLLLAWREMEQAVELCGRENEVKLLVERMMALQTDIVDLQRSPMGRKQGGTLDDLEEQARELYRRLREKPRDQRTEGDSQEMVRLLLQAIQSFEKKVRVIYTQLSKTVVCKQKALELLPKVEEVVSLMNEDEKTVVRLQEKRQKELWNLLKIACSKVRGPVSGSPDSMNASRLSQPGQLMSQPSTASNSLPEPAKKSEELVAEAHNLCTLLENAIQDTVREQDQSFTALDWSWLQTEEEEHSCLEQAS
As for B1, in assay [2], the binding entry is recorded as “no binding”.
